Source: PubChem BioAssay AID1053209 (Peter MacCallum Cancer Centre, 2014)
Aim: 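Gene losses that combine with doxorubicin to kill mouse bone cancer cells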 (follow-up of hits). System: mouse primary osteosarcoma cells. Knock-down reagent: single siRNA against mouse genes, 25 nM (text also states 40 nM). Time to read-out: about 120 h (48 h before drug, then 72 h with drug). Conditions: doxorubicin 100 nM (about IC30-40), added 48 h after transfection, for 72 h. Measurement: 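ATP-based luminescent viability, with or without doxorubicin, relative to non-targeting control NT1, mean of two replicates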. Direction: viability with doxorubicin, vs NT1: higher = more viable cells under doxorubicin; viability without drug, vs NT1: higher = more viable cells without drug. Call rule: 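Active when doxorubicin viability is at most 0.7 of NT1 and drug-free viability lies between 0.7 and 1.1, class LC dox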.
Shown is one part, drawn at random, of about 1,580 reagents. Of all reagents, 207 (13%) are marked active. 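Rows are single siRNAs; four siRNAs per gene were tested, a gene counting as confirmed only when at least two agree.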 Reagents against one gene are numbered here. Further read-outs or replicates are left out here.

The opening 2 entries, to show the layout:
Rps6 #1 → combined effect class: low viability with and without drug; viability with doxorubicin, vs NT1: 0.34; viability without drug, vs NT1: 0.64; outcome: inactive
Rps6 #2 → combined effect class: low viability with and without drug; viability with doxorubicin, vs NT1: 0.36; viability without drug, vs NT1: 0.36; outcome: inactive

The list itself, repeating the preview:
Rps6 #1 → combined effect class: low viability with and without drug; viability with doxorubicin, vs NT1: 0.34; viability without drug, vs NT1: 0.64; outcome: inactive
Rps6 #2 → combined effect class: low viability with and without drug; viability with doxorubicin, vs NT1: 0.36; viability without drug, vs NT1: 0.36; outcome: inactive
Rps6 #3 → combined effect class: low viability with and without drug; viability with doxorubicin, vs NT1: 0.4; viability without drug, vs NT1: 0.43; outcome: inactive
Rps6 #4 → combined effect class: low viability only with doxorubicin; normal without drug; viability with doxorubicin, vs NT1: 0.7; viability without drug, vs NT1: 0.84; outcome: active
Ikbke #1 → combined effect class: normal viability with and without drug; viability with doxorubicin, vs NT1: 0.84; viability without drug, vs NT1: 1.09; outcome: inactive
Ikbke #2 → combined effect class: normal viability with and without drug; viability with doxorubicin, vs NT1: 0.86; viability without drug, vs NT1: 0.94; outcome: inactive
Ikbke #3 → combined effect class: normal viability with and without drug; viability with doxorubicin, vs NT1: 0.86; viability without drug, vs NT1: 0.98; outcome: inactive
Ikbke #4 → combined effect class: normal viability with and without drug; viability with doxorubicin, vs NT1: 1.09; viability without drug, vs NT1: 1.02; outcome: inactive
Rhoh #1 → combined effect class: normal viability with and without drug; viability with doxorubicin, vs NT1: 1.02; viability without drug, vs NT1: 0.99; outcome: inactive
Rhoh #2 → combined effect class: normal viability with and without drug; viability with doxorubicin, vs NT1: 1.02; viability without drug, vs NT1: 1.06; outcome: inactive
Rhoh #3 → combined effect class: normal viability with and without drug; viability with doxorubicin, vs NT1: 0.72; viability without drug, vs NT1: 0.82; outcome: inactive
Rhoh #4 → combined effect class: normal viability with and without drug; viability with doxorubicin, vs NT1: 1.08; viability without drug, vs NT1: 1.08; outcome: inactive
